Measurements taken from the supplement of paper PMC11546906.
Structures can show the parent of a compound that is named as a salt. The list shows a part of the results. Single values are uncertain here, since repeats match poorly.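 Screen of FDA-approved drugs, each combined with colistin at one-eighth of its MIC, against a multidrug-resistant mcr-1-positive clinical E. coli isolate; growth read as OD600 after 24 h. Bacteria without drug were the growth control and plain broth the blank. A combination counted as active when OD600 fell below 0.2.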

test system: Escherichia coli 42 (mcr-1-positive clinical isolate); assay: OD600 after 24 h growth with compound plus colistin (absorbance units (OD600)); higher = more bacterial growth (less inhibition); conditions: first compound 25 µM; colistin concentration 0.5 ug/mL; incubation time 24 h; 37 °C

Structure (SMILES) | OD600
CCN(CC)CCOC(=O)C1(C2CCCCC2)CCCCC1 [Dicyclomine hydrochloride] + CCC(C)CCCC(=O)N[C@@H](CCN)C(=O)N[C@H](C(=O)N[C@@H](CCN)C(=O)N[C@H]1CCNC(=O)[C@H]([C@@H](C)O)NC(=O)[C@H](CCN)NC(=O)[C@H](CCN)NC(=O)[C@H](CC(C)C)NC(=O)[C@@H](CC(C)C)NC(=O)[C@H](CCN)NC1=O)[C@@H](C)O [colistin] | inactive: 1
CC(=O)O[C@H]1C[C@@H]2CC[C@@H]3[C@H](CC[C@@]4(C)[C@H]3C[C@H]([N+]3(C)CCCCC3)[C@@H]4OC(C)=O)[C@@]2(C)C[C@@H]1N1CCCCC1 [Vecuronium bromide] + CCC(C)CCCC(=O)N[C@@H](CCN)C(=O)N[C@H](C(=O)N[C@@H](CCN)C(=O)N[C@H]1CCNC(=O)[C@H]([C@@H](C)O)NC(=O)[C@H](CCN)NC(=O)[C@H](CCN)NC(=O)[C@H](CC(C)C)NC(=O)[C@@H](CC(C)C)NC(=O)[C@H](CCN)NC1=O)[C@@H](C)O [colistin] | inactive: 0.857
CN(C)c1ccc(O)c2c1C[C@H]1C[C@H]3[C@H](N(C)C)C(=O)C(C(N)=O)=C(O)[C@@]3(O)C(=O)C1=C2O [Minocycline hydrochloride] + CCC(C)CCCC(=O)N[C@@H](CCN)C(=O)N[C@H](C(=O)N[C@@H](CCN)C(=O)N[C@H]1CCNC(=O)[C@H]([C@@H](C)O)NC(=O)[C@H](CCN)NC(=O)[C@H](CCN)NC(=O)[C@H](CC(C)C)NC(=O)[C@@H](CC(C)C)NC(=O)[C@H](CCN)NC1=O)[C@@H](C)O [colistin] | active: 0.04
CC(C(=O)O)c1cccc(C(=O)c2ccccc2)c1 (centres undefined) [Ketoprofen] + CCC(C)CCCC(=O)N[C@@H](CCN)C(=O)N[C@H](C(=O)N[C@@H](CCN)C(=O)N[C@H]1CCNC(=O)[C@H]([C@@H](C)O)NC(=O)[C@H](CCN)NC(=O)[C@H](CCN)NC(=O)[C@H](CC(C)C)NC(=O)[C@@H](CC(C)C)NC(=O)[C@H](CCN)NC1=O)[C@@H](C)O [colistin] | inactive: 1.09
Nc1nc(O)c2ncn(CCC(CO)CO)c2n1 [Penciclovir] + CCC(C)CCCC(=O)N[C@@H](CCN)C(=O)N[C@H](C(=O)N[C@@H](CCN)C(=O)N[C@H]1CCNC(=O)[C@H]([C@@H](C)O)NC(=O)[C@H](CCN)NC(=O)[C@H](CCN)NC(=O)[C@H](CC(C)C)NC(=O)[C@@H](CC(C)C)NC(=O)[C@H](CCN)NC1=O)[C@@H](C)O [colistin] | inactive: 0.968
O=C(O)COCCN1CCN([C@H](c2ccccc2)c2ccc(Cl)cc2)CC1 [Levocetirizine] + CCC(C)CCCC(=O)N[C@@H](CCN)C(=O)N[C@H](C(=O)N[C@@H](CCN)C(=O)N[C@H]1CCNC(=O)[C@H]([C@@H](C)O)NC(=O)[C@H](CCN)NC(=O)[C@H](CCN)NC(=O)[C@H](CC(C)C)NC(=O)[C@@H](CC(C)C)NC(=O)[C@H](CCN)NC1=O)[C@@H](C)O [colistin] | inactive: 1.07
Cc1nc(Nc2ncc(C(=O)Nc3c(C)cccc3Cl)s2)cc(N2CCN(CCO)CC2)n1 [Dasatinib monohydrate] + CCC(C)CCCC(=O)N[C@@H](CCN)C(=O)N[C@H](C(=O)N[C@@H](CCN)C(=O)N[C@H]1CCNC(=O)[C@H]([C@@H](C)O)NC(=O)[C@H](CCN)NC(=O)[C@H](CCN)NC(=O)[C@H](CC(C)C)NC(=O)[C@@H](CC(C)C)NC(=O)[C@H](CCN)NC1=O)[C@@H](C)O [colistin] | inactive: 0.998
S=P(N1CC1)(N1CC1)N1CC1 + CCC(C)CCCC(=O)N[C@@H](CCN)C(=O)N[C@H](C(=O)N[C@@H](CCN)C(=O)N[C@H]1CCNC(=O)[C@H]([C@@H](C)O)NC(=O)[C@H](CCN)NC(=O)[C@H](CCN)NC(=O)[C@H](CC(C)C)NC(=O)[C@@H](CC(C)C)NC(=O)[C@H](CCN)NC1=O)[C@@H](C)O [colistin] | inactive: 1.21
CC(=O)N[C@@H](CS)C(=O)O [Acetylcysteine] + CCC(C)CCCC(=O)N[C@@H](CCN)C(=O)N[C@H](C(=O)N[C@@H](CCN)C(=O)N[C@H]1CCNC(=O)[C@H]([C@@H](C)O)NC(=O)[C@H](CCN)NC(=O)[C@H](CCN)NC(=O)[C@H](CC(C)C)NC(=O)[C@@H](CC(C)C)NC(=O)[C@H](CCN)NC1=O)[C@@H](C)O [colistin] | inactive: 0.799
